Patent US8507554B2 (priority 2006, dated 2013)
At least one compound was matched to its structure with a doubt left.

Test system: P. aeruginosa
Test: Inhibiting ability against biofilm formation: count of adhesive P. aeruginosa on specimen surface after 4 hours
Type: cell-based, Pseudomonas aeruginosa
Details: 10 μmol/L in nutrient flask, counted after 4 hours
Procedure: Inhibiting ability against biofilm formation of quorum-sensing antagonist prepared according to exemplary embodiments 1-7 was evaluated.
Specimen was set in nutrient flask containing 10 μmol/L of quorum-sensing antagonist prepared according to exemplary embodiments 1-7 and P. aeruginosa which has strong adhesive character on surface. Numbers of adhesive P. aeruginosa on surface were counted after 4 hours. Distilled water was poured into nutrient flask instead of quorum-sensing antagonist as a comparison example 1. Numbers of adhesive P. aeruginosa on surface were counted after 4 hours. […] Numbers of adhesive P. aeruginosa on surface were counted after 4 hours. […]

## CCCCCCCCCC(=O)CC(=O)N[C@H]1CCOC1=O [Comparative example 2, N-3-oxododecanoylhomoserinelactone, reference compound]
  Numbers of adhesive P. aeruginosa: 1.4 × 108 CFU/cm2
